Measurements from US8957056B2, “Migrastatin analogs in the treatment of cancer” (Sloan-Kettering Instiute for Cancer Research, priority 2004, dated 2015).
Some entries share one result that the patent states for a list of compounds. At least one structure is not confirmed: it was looked up by name or label, or the drawing left a doubt.

Experiments:
mouse 4T1 cell = mouse 4T1 cell proliferation; previously reported (WO 2004/087672); cited from earlier work
[1] = tested on: human ovarian tumor cell line OVCAR3; assay: In vivo metastatic ovarian xenograph model (OVCAR3 HSV-TK/eGFP/FLuc); design: species or system mouse; conditions: 40 mg/kg three times a week for 10 treatments
Text: The human ovarian tumor cell line OVCAR3 was transduced with a triple fusion gene HSV-TK/eGFP/FLuc, expressing thymidine kinase, enhanced green fluorescence protein and firefly luciferase. Whole animal imaging by luciferase bioluminescence (FIGS. 7A & B), allowed identification and quantification of disseminated tumor. We quantified the tumor burden in each organ, by sacrificing the mouse shortly after luciferin injecting and imaging of the dissected organs (lung, liver and spleen) (FIG. 8). In all instances tumor engraftment was initiated with 1-5×10^7 cells and the recipients received 3 Gy irradiation 10 days before tumor engraftment. These tumor cells generated bulky omental metastases with diffuse microscopic peritoneal carcinomatosis causing ascites (FIG. 9), significant pleural effusion with diffuse macroscopic peritoneal carcinomatosis and liver, lung and paraaortic metastases.
Treatment was initiated once primary tumor was well established. Animals were imaged at weekly intervals to monitor tumor growth and location of metastases (imaging sensitivity 200-500 cells).

Compound: CO[C@H]1/C=C/CCCCC(=O)OC/C(C)=C\[C@@H](C)[C@@H]1O [Compound 48, Macrolactone]
- concentration up to which no cytotoxic or anti-proliferative effects (mouse 4T1 cell): ≥ 20 µM
- reduction of tumor mass [1]: over 50%
